Source: paper PMC6753678, “Fueling Open Innovation for Malaria Transmission-Blocking Drugs: Hundreds of Molecules Targeting Early Parasite Mosquito Stages” (Frontiers in Microbiology, 2019)

Tested on: P. berghei ookinete development
[1] = unified cytotox / IC50, <10-fold red, >10-fold green

With `O=C(Nc1ccccc1)Nc1ccc(-n2ccc(C(F)(F)F)n2)cc1` [TCMDC-123480] the “Assay tox ratio Pb ODA” value was 52.73.
In the case of `O=C(NCC1CCCCC1)c1cc(=O)c2ccccc2o1` [TCMDC-123621], the “Assay tox ratio Pb ODA” value is reported as 96.17.
For `CC(=O)Nc1cccc(Nc2c3ccccc3nc3ccccc23)c1` [TCMDC-123741], the “Assay tox ratio Pb ODA” value was 17.92.
For `CSc1ccc(C=CC(=O)NC(=O)c2ccccc2O)cc1` [TCMDC-123758], the “Assay tox ratio Pb ODA” value was 139.25.
`Cn1nc(C(F)(F)F)c(-c2ccc(Br)cc2)c1NC(=O)Cc1ccccc1F` [TCMDC-123792] was tested, and the “Assay tox ratio Pb ODA” value [1] was 47.09.
In the case of `Cc1cc(C(=O)OCC(=O)Nc2c(C)n(C)n(-c3ccccc3)c2=O)c(C)n1-c1ccc(F)cc1` [TCMDC-123794], the “Assay tox ratio Pb ODA” value is reported as 92.88.
`Cc1nc(/N=C(\N)NC(=O)NC2CCCCC2)nc2ccccc12` [TCMDC-123808] was tested, and the “Assay tox ratio Pb ODA (red: <10-fold selectivity; green: >10-fold)” value was 32.79.
With `Cc1cc(NC(c2ccc(Cl)cc2)c2ccc3cccnc3c2O)no1` (stereo not drawn) [TCMDC-123828] the “Assay tox ratio Pb ODA” value was 0.46.
In the case of `Cc1sc2ncnc(Sc3nc4ccccc4[nH]3)c2c1C` [TCMDC-123835], the “Assay tox ratio Pb ODA” value is reported as 108.87.
For `CCOC(=O)c1c[nH]c2c(ccc3ccccc32)c1=O` [TCMDC-123857], the “Assay tox ratio Pb ODA” value was 177.95.
For `Cc1ccc(C2=NNC3(S2)C(=O)N(C)c2ccccc23)cc1` (stereo not drawn) [TCMDC-123863], the “Assay tox ratio Pb ODA” value was 23.32.
In the case of `O=C(c1cccs1)N1CCN(c2ccc([N+](=O)[O-])c(NC3CC3)c2)CC1` [TCMDC-123877], the “Assay tox ratio Pb ODA” value is reported as 58.89.
With `Br.CC(CCON1C(N)=NC(N)=NC1(C)C)c1ccc(Cl)c(Cl)c1` (stereo not drawn) [TCMDC-123922] the “Assay tox ratio Pb ODA” value [1] was 0.000174.
`O=c1c2ccccc2[nH]c2cc(Cl)ccc12` [TCMDC-123989] was tested, and the “Assay tox ratio Pb ODA” value was 43.00.
In the case of `Cc1ccnc(NC(c2cccc(Cl)c2Cl)c2ccc3cccnc3c2O)c1` (stereo not drawn) [TCMDC-123997], the “Assay tox ratio Pb ODA” value [1] is reported as 6.94.
In the case of `CCOC(=O)C(=O)N1c2ccc(OCC)cc2-c2c(ssc2=S)C1(C)C` [TCMDC-124090], the “Assay tox ratio Pb ODA” value is reported as 49.72.
For `CC(C)c1nc(N2CCN(C(=S)NCc3ccccc3)CC2)c(C#N)c2c1COC(C)(C)C2` [TCMDC-124093], the “Assay tox ratio Pb ODA” value was 0.00223.
`Cc1cc(C)cc(-n2c(C)cc(/C=C3\SC(=Nc4ccc(Cl)cc4)NC3=O)c2C)c1` [TCMDC-124103] was tested, and the “Assay tox ratio Pb ODA” value was 178.36.
With `CCOC(=O)c1c(CN2CCCC2)n(-c2ccccc2)c2cc(Br)c(O)cc12` [TCMDC-124122] the “Assay tox ratio Pb ODA” value was 9.23.
For `Cc1ccc(Nc2nc(N/N=C/c3cccc(O)c3)nc(Nc3ccc([N+](=O)[O-])cc3)n2)cc1C` [TCMDC-124125], the “Assay tox ratio Pb ODA” value was 26.12.
With `COc1ccc2nc3cc(Cl)ccc3c(NCCCO)c2c1` [TCMDC-124144] the “Assay tox ratio Pb ODA (red: <10-fold selectivity; green: >10-fold)” value was 5.45.
With `CC(C)CN1CCN(c2nc(C#N)c3c(c2C(=S)NC2CCCCC2)CC(C)(C)OC3)CC1` [TCMDC-124173] the “Assay tox ratio Pb ODA” value was 20.46.
`COc1ccc(C=NNc2nc(O)cc(-c3ccccc3)n2)cc1OC` [TCMDC-124217] was tested, and the “Assay tox ratio Pb ODA” value was 117.12.
With `COc1cc(OC)nc(C(Sc2ccc(NC(=O)c3cccs3)cc2)c2ccccc2)n1` (stereo not drawn) [TCMDC-124257] the “Assay tox ratio Pb ODA” value was 102.76.
For `COc1ccc2nc3cc(Cl)ccc3c(NCCO)c2c1.Cl` [TCMDC-124272], the “Assay tox ratio Pb ODA (red: <10-fold selectivity; green: >10-fold)” value was 18.59.
With `Cc1ccc2[nH]c(C)c(Br)c(=O)c2c1` [TCMDC-124347] the “Assay tox ratio Pb ODA” value was 40.76.
In the case of `CC(=O)Nc1ccc(Nc2c3ccccc3nc3ccccc23)cc1` [TCMDC-124356], the “Assay tox ratio Pb ODA” value is reported as 23.64.
In the case of `CCn1c(C)cc(C=C2SC(=Nc3ccccc3)NC2=O)c1C` [TCMDC-124456], the “Assay tox ratio Pb ODA” value is reported as 96.79.
With `COc1ccc(C=C2SC(=N)N(c3ccccc3OC)C2=O)cc1` [TCMDC-124486] the “Assay tox ratio Pb ODA” value was 35.98.
`Cn1c(Sc2ncnc3sccc23)nc2ccccc21` [TCMDC-124514] was tested, and the “Assay tox ratio Pb ODA” value [1] was 252.18.
With `Cc1cc2nc(/N=C(\N)NC(=O)NC3CCCCC3)nc(C)c2cc1C` [TCMDC-124528] the “Assay tox ratio Pb ODA (red: <10-fold selectivity; green: >10-fold)” value was 10.06.
`CCc1cc2c(Sc3nc4ccccc4[nH]3)ncnc2s1` [TCMDC-124553] was tested, and the “Assay tox ratio Pb ODA” value was 100.17.
For `Cc1ccc2nc(/N=C(\N)NC(=O)NC3CCCCC3)nc(C)c2c1` [TCMDC-124557], the “Assay tox ratio Pb ODA (red: <10-fold selectivity; green: >10-fold)” value was 32.94.
For `c1ccc(CCNc2ncnc3c2[nH]c2ccccc23)cc1` [TCMDC-124578], the “Assay tox ratio Pb ODA” value was 28.82.
For `O=C(c1cc(-c2cccs2)[nH]n1)N1CCN(S(=O)(=O)c2ccc(Cl)cc2)CC1` [TCMDC-124702], the “Assay tox ratio Pb ODA (red: <10-fold selectivity; green: >10-fold)” value was 9.71.
`CCn1c(CN2CCC(C)CC2)nc2cc(NC(=O)c3cccs3)ccc21` [TCMDC-124730] was tested, and the “Assay tox ratio Pb ODA” value was 216.50.
For `COc1cc(OC)c(NC(=O)C2c3ccccc3C(=O)N(CC(C)C)C2c2cccs2)cc1Cl` (stereo not drawn) [TCMDC-124760], the “Assay tox ratio Pb ODA” value was 11.62.
For `Cc1ccc(C)c(CC(=O)N2CCC(n3c(C)nc4ccc(F)cc43)CC2)c1` [TCMDC-124790], the “Assay tox ratio Pb ODA” value [1] was 15.71.
In the case of `COc1cccc(CC(=O)N2CCC(n3c(C)nc4ccc(C)cc43)CC2)c1` [TCMDC-124791], the “Assay tox ratio Pb ODA” value [1] is reported as 89.57.

Read-outs that look alike come from different tables or passages of the source.
